## Library screening results

Amino acid sequences for entries named in this document (tags omitted).
UniProt E9BF75, entry or part of it: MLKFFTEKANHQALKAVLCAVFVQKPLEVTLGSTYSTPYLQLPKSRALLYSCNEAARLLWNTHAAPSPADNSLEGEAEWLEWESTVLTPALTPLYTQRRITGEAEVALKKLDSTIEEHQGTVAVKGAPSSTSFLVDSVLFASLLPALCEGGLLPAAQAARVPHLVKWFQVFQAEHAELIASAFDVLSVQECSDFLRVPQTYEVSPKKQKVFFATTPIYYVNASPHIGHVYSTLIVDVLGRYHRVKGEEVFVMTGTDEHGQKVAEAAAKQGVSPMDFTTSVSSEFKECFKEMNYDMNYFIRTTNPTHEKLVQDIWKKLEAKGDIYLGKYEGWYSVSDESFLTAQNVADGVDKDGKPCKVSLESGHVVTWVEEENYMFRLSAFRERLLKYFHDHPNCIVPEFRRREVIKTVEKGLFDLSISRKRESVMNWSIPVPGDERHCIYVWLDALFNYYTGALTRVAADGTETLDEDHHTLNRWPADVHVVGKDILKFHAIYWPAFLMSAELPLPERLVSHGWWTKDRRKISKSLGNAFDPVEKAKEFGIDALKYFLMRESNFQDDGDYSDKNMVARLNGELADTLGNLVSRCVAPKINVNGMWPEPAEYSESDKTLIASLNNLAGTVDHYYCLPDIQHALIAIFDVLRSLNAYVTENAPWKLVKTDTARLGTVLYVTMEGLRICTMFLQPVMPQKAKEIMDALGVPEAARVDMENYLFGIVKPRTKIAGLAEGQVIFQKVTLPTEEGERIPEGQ

Source: ChEMBL document CHEMBL3988442, “University of Dundee, Small-Polar-MMV Screening Library” (2021).

All values are in %. How 0% and 100% were set is not recorded. Most values in the screen are low, and negative values occur. The compounds are a random part of those screened.

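Primary screen of methionyl-tRNA synthetase; the read-out is not stated. Target: Methionyl-tRNA synthetase (putative), Leishmania donovani (UniProt E9BF75). The test concentration is not given. Values are per cent inhibition. Size under these conditions: about 68,000 compounds, about 24 of them at 50% or above in at least one test.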

structure,inhibition
CCc1[nH]n(C)c(=N)c1-c1ccc2c(c1)OCO2,17.79%
CCN(CC)S(=O)(=O)c1ccc(NC(=O)C(C)(C)C)cc1,6.272%
c1ccc2oc(C3CCN(Cc4ncon4)CC3)nc2c1,12.39%
COCCN1C(=O)CC[C@]12CC[C@@H](NCc1cccnc1OC)CC2,3.114%
CS(=O)(=O)N1CCC(O)(Cn2c(C3CC3)nc3ccccc3c2=O)CC1,5.822%
O=C(NCC1CC1)C1CN(C(=O)c2ccnnc2)CC12CCOCC2 (stereo not shown),15.6%
COc1ccc2c(c1)OCC(Cc1ccc(N)cn1)C2 (stereo not shown),16.85%
O=C1OCCN1CCN1CCCN(Cc2ccccc2F)CC1,11.57%
COc1cc(C(C)=O)ccc1SCC(=O)Nc1ccc(C)cn1,20.07%
Cc1cc(C(=O)Nc2cc(C3CC3)n[nH]2)c2c(C)nn(C)c2n1,9.91%
Cc1cnn(C2CN(c3ccccc3S(=O)(=O)C(F)(F)F)C2)c1,6.504%
CCCc1noc(CN2CCCC2c2c(C)nn(C)c2OC)n1 (stereo not shown),2.098%
O=C(c1ccc(O)nc1)N1CCc2ccc(O)cc2C1,10.43%
CCOc1ccc(C(F)(F)F)cc1NCc1nc(C)c(C)o1,15.66%
CCn1nnnc1-c1cccc(NC(=O)CCn2cc(C)cn2)c1,17.55%
CNC(=O)COc1ccc(-c2ccccc2)nc1,8.527%
CN1Cc2ccccc2CC2(CCN(C(=O)N3CCOCC3)CC2)C1=O,3.297%
Cc1cc(C(=O)Nc2cnn(CC(F)(F)F)c2)nc(N2CCOCC2)n1,21.36%
Cn1cc(CN2CCc3nc(-c4ccccn4)nc(O)c3C2)cn1,11.5%
CC(=O)N1Cc2ccccc2OC2(CCN(C(=O)C3CCOC3)CC2)C1 (stereo not shown),15.82%
COc1cc(C(=O)NS(=O)(=O)c2cncc(Br)c2)ccc1C,10.66%
CCOC1COC2(CCN(CC3CC3)CC2)C1 (stereo not shown),2.933%
O=C(NC1CCC(C(=O)N2CCSCC2)CC1)N1CCOCC1 (stereo not shown),19.25%
CN1CCN(C(=O)c2cccs2)Cc2ccccc21,6.634%
O=C(Cc1cccc(O)c1)NCCNc1nccc(C(F)(F)F)n1,25.19%
CC(=O)c1ccc(NC(=O)N(CCN(C)C)Cc2ccc(C)s2)cc1,5.415%
COc1ccc(CN(C)CCS(=O)(=O)c2ccc(Cl)cc2)cc1OC,6.183%
Cc1cn2c(n1)CCC(NC(=O)CCOc1ccccc1F)C2 (stereo not shown),8.488%
COc1c(CNC(C)C(=O)NC2CCCC2)c(C)nn1C (stereo not shown),12.03%
CCNC(=O)C1CCN(Cn2nc(-c3ccccc3)oc2=O)CC1,23.6%
Cc1nc(CN(C)Cc2cc3c(cc2OC(F)F)OCO3)oc1C,13.51%
CCOc1cc(C(=O)NS(C)(=O)=O)cc(-c2ccccc2)c1OC,14.49%
CN(C)CC(=O)N1CCC2(CC1)Cc1ccccc1CN(C)C2=O,-9.89%
O=C(NCC1Cn2nnc(-c3ccccc3)c2CO1)c1ccc[nH]1 (stereo not shown),9.15%
Cc1ccc(C(=O)N2C[C@@H](N3CCN(C)CC3)[C@H]3OCCC[C@H]32)cn1,14.08%
CC(=O)NC1CCCN(C(=O)NCc2cc[nH]n2)C1 (stereo not shown),12.57%
CS(=O)(=O)N1CC2(CCN(Cc3ccccn3)C2)Cc2ccccc21 (stereo not shown),13.14%
CCS(=O)(=O)N1CC[C@H](OC)[C@H]2CN(Cc3ccncc3)C[C@H]21,10.1%
CC(SCC(=O)NC(N)=O)c1ccc(Cl)cc1 (stereo not shown),9.511%
Cc1cc(C(=O)N2CCCC2)ccc1NCCO,14.09%

3 of the entries, repeated:

* COc1cc(C(=O)NS(=O)(=O)c2cncc(Br)c2)ccc1C : 10.66%
* CCn1nnnc1-c1cccc(NC(=O)CCn2cc(C)cn2)c1 : 17.55%
* CN1CCN(C(=O)c2cccs2)Cc2ccccc21 : 6.634%